Measured values published in PubChem BioAssay AID540303 (National Center for Advancing Translational Sciences (NCATS), 2011).
The whole screen tested about 330,000 compounds, of which about 1,000 (0.3%) were called active. The inconclusive results got no clear call from the source; some entries with a clear call stand among them for comparison. Calls come from the whole dose curve; as a rule, active = well fitted inhibition curve with a large enough effect; inconclusive = small, poorly fitted or top-dose-only effect; inactive = no such curve, though single readings can be large or run the other way; tested in mouse RAW 264.7 cells. Where the call is inconclusive, the potency comes from a doubtful curve fit.

test: qHTS for Inhibitors of Cell Surface uPA Generation; details: cell surface uPA generation assay; series mostly up to 38.3 µM; activity change, negative = inhibition: at the top concentration; note: nearly all actives have a fitted effect of over 55% in size
Procedure, shortened: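 ATP-Lite luminescence in RAW 264.7 cells after 24 h of exposure to compound, tested up to 38.3 uM final in 1:5 steps. Raised ATP reflects inhibition of uPA-dependent LF delivery to the cytoplasm.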
% is set by controls: 0 for no effect and ±100 for the full control effect; potency is the fitted concentration of half-maximal effect.

| SMILES | activity change, negative = inhibition | Potency |
| --- | --- | --- |
| COc1cc(-c2nnc3sc(C4CCCCC4)nn23)cc(OC)c1OC | inactive: -3.31% | – |
| CCOC(=O)c1nc(Nc2ccc(Nc3ccccc3)cc2)c2ccccc2n1 | – | inconclusive: 12.6 µM [inhibitor, partial curve, poor fit] |
| COC(=O)c1ccc(NC(=S)NC2CC3CCC2C3)cc1 (centres undefined) | inactive: 1.92% | – |
| CCc1cc2c3c(c(=O)oc2cc1OC(C)C(=O)O)CCCC3 (centres undefined) | – | inconclusive: 14.1 µM [inhibitor, partial curve, poor fit] |
| Cc1c(C(=O)Nc2nc(-c3ccccn3)cs2)oc2ccccc12 | – | inconclusive: 12.6 µM [inhibitor, partial curve, poor fit] |
| c1cnc2c(c1)ccc1cccnc12 | – | inconclusive: 1.58 µM [inhibitor, full curve, poor fit] |
| COc1cc([C@@H]2CC=C(C(=O)O)[C@H](c3cccc(Cl)c3)N2S(=O)(=O)c2ccc(C)cc2)cc(OC)c1OC | inactive: 9.33% | – |
| CC(OC(=O)c1cccnc1Cl)C(=O)Nc1ccc2c(c1)OCO2 (centres undefined) | – | inconclusive: 12.6 µM [inhibitor, single point] |
| Cc1ccn2cc(C(=O)Nc3ccc4c(c3)OCCO4)nc2c1 | – | inconclusive: 4.47 µM [inhibitor, partial curve, poor fit] |
| S=C(NCc1ccccc1)N/N=C/c1cccs1 | inactive: 0.221% | – |
| c1ccc(CN2CCN(C(c3ccccc3)c3ccccc3)CC2)cc1 | inactive: 2.97% | – |
| CN(NC(=O)Nc1ccccc1)c1cnn(C)c(=O)c1Cl | – | inconclusive: 0.0089 µM [inhibitor, full curve, poor fit] |
| CCn1nc(C)cc1-c1nnc(Sc2ncc([N+](=O)[O-])s2)n1C | – | inconclusive: 5.01 µM [inhibitor, single point] |
| Cc1ccc(O)c(-c2cc(-c3ccc(F)cc3)no2)c1 | – | active: 10 µM |
| CCc1ccccc1NC(=O)CSc1nc2ccccc2nc1N1CCOCC1 | inactive: -10.3% | – |
| COc1ccc(S(=O)(=O)Nc2cc3c(cc2C(C)=O)OCO3)cc1 | – | inconclusive: 5.62 µM [inhibitor, partial curve, poor fit] |
| CN(Cc1ccco1)C(=O)c1ccc(S(=O)(=O)N2CCCCCC2)cc1 | – | inconclusive: 5.62 µM [inhibitor, partial curve, poor fit] |
| CNC(=S)SCCOc1ccc(C)cc1 | – | inconclusive: 7.08 µM [inhibitor, single point] |
| CC(=O)N(C)c1ccc(N=NC2C(=O)N(C(N)=S)N=C2C)cc1 (centres undefined) | – | inconclusive: 10 µM [inhibitor, single point] |
| CCOC(=O)C1=CC[C@H]2c3c(c4ccc(OC)cc4n3C)C(=O)C1N2S(=O)(=O)c1ccc(C)cc1 | – | inconclusive: 8.91 µM [inhibitor, single point] |
| CCN(CC)c1ccc(NC(=O)c2cccnc2)c(C)c1 | inactive: -10.2% | – |
| O=C(Cn1ncc(Cl)c(Cl)c1=O)Nc1ccc2c(c1)OCO2 | – | inconclusive: 12.6 µM [inhibitor, single point] |
| Cc1ccc(NC(=O)CSc2nccc(=O)[nH]2)c(S(=O)(=O)N2CCOCC2)c1 | inactive: 2.99% | – |

| SMILES | activity change, negative = inhibition | Potency |
| --- | --- | --- |
| CCCCc1nc2cc(C(=O)N3CCC(O)CC3)ccc2o1 | – | inconclusive: 14.1 µM [inhibitor, partial curve, poor fit] |
| Cc1csc(NC(=O)CCc2c(C)nc3cc(-c4cccc(F)c4)nn3c2C)n1 | inactive: 15.2% | – |
| CCOC(=O)c1cc(NC(=O)Nc2nc3ccccc3s2)c(C)nc1C | inactive: 0.0962% | – |
| CCOc1ccc(S(=O)(=O)NCc2ccncc2)cc1NC(=O)c1ccccc1 | – | inconclusive: 3.16 µM [inhibitor, partial curve] |
| O=C(C1=C[C@@H](c2ccccc2)C[C@@H](OCc2ccc(CO)cc2)O1)N1CCN(Cc2ccc3c(c2)OCO3)CC1 | – | inconclusive: 10 µM [inhibitor, single point] |
| CCn1ccnc1CN(C)Cc1cn(-c2cccc(C)c2)nc1-c1cccc(F)c1 | – | inconclusive: 25.1 µM [inhibitor, partial curve, poor fit] |
| CCCCNc1c(-c2ccc(Sc3ccc(OC)cc3)cc2)nc2cc(C)ccn12 | – | inconclusive: 12.6 µM [inhibitor, single point] |
| c1ccc(-c2cn3c4c(sc3n2)CCCC4)cc1 | – | inconclusive: 1.26 µM [inhibitor, full curve] |
| O=C(Nc1nc2c(Cl)cccc2s1)c1ccc(Br)o1 | inactive: 6.04% | – |
| Cc1cccc(CCNC(=O)CCCOc2cc(=O)n(C)c3ccccc23)c1 | inactive: -4.78% | – |
| COC(=O)[C@@]1(Cc2ccc(OC)cc2)[C@@H]2C(=CC(=O)[C@H]2CC(=O)C(=O)N2CCCC2)CN1C(=O)c1ccccc1 | – | active: 8.91 µM |
| O=C1CCC[C@@H]2Cc3nc4ccc(Cl)cc4cc3[C@@H]3CCN1[C@H]23 | – | inconclusive: 5.62 µM [inhibitor, partial curve, poor fit] |
| Cc1c(Cl)cccc1NC(=S)NC1CCN(C(C)C)CC1 | – | inconclusive: 5.01 µM [inhibitor, partial curve, poor fit] |
| CN(C)CC/C=C1/c2cc(F)ccc2Sc2ccc(Cl)cc21 | inactive: 1.73% | – |
| Cc1cc2n(n1)C(c1ccccc1)CC(c1ccc(Br)cc1)=N2 (centres undefined) | – | inconclusive: 11.2 µM [inhibitor, single point] |
| O=C(NC1CCCC1)C(=O)N(Cc1cccnc1)C(C(=O)NCC1CCCO1)c1ccco1 (centres undefined) | – | inconclusive: 0.891 µM [inhibitor, partial curve, poor fit] |
| N#CNC(=Nc1cccc(F)c1)SCc1ccccc1 | – | inconclusive: 10 µM [inhibitor, partial curve, poor fit] |
| COc1ccc(-c2coc3cc(OC4OC(CO)C(O)C(O)C4O)cc(O)c3c2=O)cc1 (centres undefined) | – | inconclusive: 5.62 µM [inhibitor, partial curve, poor fit] |
| FC(F)(F)c1cccc(-n2cc(-c3ccccc3)[nH]c2=S)c1 | inactive: -7.33% | – |
| CCOC(=O)Cc1csc(NC(=O)c2ccc(Br)cc2)n1 | – | inconclusive: 31.6 µM [inhibitor, single point] |
| COC(=O)[C@]1(Cc2ccccc2)N[C@H](CN(C)C(=O)c2ccc(C)cc2)[C@@H]2C(=O)N(C)C(=O)[C@@H]21 | inactive: 13.2% | – |
| CCc1nc(SCC(=O)Nc2ccc(N(CC)CC)cc2)n[nH]1 | inactive: 3.32% | – |
| CSC1=NNC(c2ccc(C(C)(C)C)cc2)=NN1 | – | inconclusive: 10 µM [inhibitor, single point] |

Quoted from the listing:
Potency with `COc1ccc(-c2coc3cc(OC4OC(CO)C(O)C(O)C4O)cc(O)c3c2=O)cc1` (centres undefined) reads inconclusive: 5.62 µM [inhibitor, partial curve, poor fit]
Potency with `CCOc1ccc(S(=O)(=O)NCc2ccncc2)cc1NC(=O)c1ccccc1` reads inconclusive: 3.16 µM [inhibitor, partial curve]
Potency with `N#CNC(=Nc1cccc(F)c1)SCc1ccccc1` reads inconclusive: 10 µM [inhibitor, partial curve, poor fit]
activity change, negative = inhibition with `CCOC(=O)c1cc(NC(=O)Nc2nc3ccccc3s2)c(C)nc1C` reads inactive: 0.0962%

(further entries)

| SMILES | activity change, negative = inhibition | Potency |
| --- | --- | --- |
| CC(C)CNC(=S)NC1CC2CCCC(C1)N2C1CCCCC1 (centres undefined) | inactive: 10.7% | – |
| CCCC1OC2CC3C4CCC5=CC(=O)C=CC5(C)C4C(O)CC3(C)C2(C(=O)O)O1 (centres undefined) | – | inconclusive: 5.62 µM [inhibitor, partial curve, poor fit] |
| COc1cccc(-c2csc(N3CCN(C(=S)Nc4cccc(C)c4)CC3)n2)c1 | – | inconclusive: 6.31 µM [inhibitor, partial curve, poor fit] |
| CC(C)c1ccc2nc(NC(=O)C3CC3)sc2c1 | – | inconclusive: 7.08 µM [inhibitor, single point] |
| Clc1ccc(C[n+]2cc(-c3ccccc3)n3c2CCCCC3)c(Cl)c1 | – | inconclusive: 3.98 µM [inhibitor, partial curve, poor fit] |
| CCOC(=O)c1c(C)[nH]c(C(=O)OCC(=O)c2ccccc2)c1C | – | inconclusive: 5.62 µM [inhibitor, partial curve, poor fit] |
| Nc1nc2ccccc2cc1-c1cccs1 | – | inconclusive: 8.91 µM [inhibitor, partial curve, poor fit] |
| O=C(CCSc1ccccc1)Nc1nnc(-c2ccccc2)o1 | – | inconclusive: 35.5 µM [inhibitor, partial curve, poor fit] |
| COC(=O)c1c(C(=O)OC)n(CCCN)c2ccc(C)cc12 | – | inconclusive: 2.51 µM [inhibitor, full curve, poor fit] |
| O=C(Nc1ccc2nc(-c3cccs3)[nH]c2c1)c1ccco1 | inactive: -9.45% | – |
| COCCN1C(=O)N(c2ccc(OC)cc2)C(=O)C1CC(=O)Nc1cccc(F)c1 (centres undefined) | – | inconclusive: 0.316 µM [inhibitor, full curve, poor fit] |
| COc1ccc(-n2nnnc2-c2cccc(OC)c2)cc1 | inactive: -10.9% | – |
| Cc1ccc(/C=C/C(=O)Nc2cccnc2)o1 | inactive: 17% | – |
| Cc1ccccc1CNC(=O)COc1ccccc1 | – | inconclusive: 0.0708 µM [inhibitor, full curve] |
| COc1cc(/C=C/C(=O)OCC(=O)Nc2ccc(Cl)cn2)ccc1O | – | inconclusive: 7.08 µM [inhibitor, partial curve] |
| COc1cc(OC)nc(Oc2ccccc2C(=O)Oc2ccc(Cl)cc2)n1 | – | inconclusive: 28.2 µM [inhibitor, single point] |
| CN(C)c1ccc(-c2nnc(-c3ccccc3F)o2)cc1 | – | inconclusive: 10 µM [inhibitor, single point] |
| O=C(Nc1nc(-c2cccs2)c(-c2ccccc2)s1)c1ccco1 | inactive: -6.6% | – |
| Cc1ccccc1Cc1c(C)nc2nc(SCC(=O)NCCCN3CCCCC3)nn2c1C | inactive: -3.81% | – |
| COc1cccc(CNC(=O)C2CCCN(c3ncnc4c3nc3n4CCCCC3)C2)c1 (centres undefined) | – | inconclusive: 8.91 µM [inhibitor, partial curve, poor fit] |
| Nc1ccc(C2=Nc3cccc4cccc(c34)N2)cc1 | inactive: -10.7% | – |
| CCc1ccc(/C(C)=N/NC(=O)c2ccccn2)cc1 | – | inconclusive: 0.316 µM [inhibitor, full curve, poor fit] |
| Cc1ccc(NC(=O)c2ccc(CNc3c(N4CCOCC4)c(=O)c3=O)cc2)cc1 | – | inconclusive: 31.6 µM [inhibitor, single point] |
